Results reported in patent US7553630.
Results are given in words; binding and its absence hold for the method and conditions named. Some results given as binding are weak or reduced against the parent protein; the word gives no strength.

Protein sequences, listed by entry. Tags and fused reporters are not part of them. Lines headed by an entry give the natural chain unless they say otherwise; changes in a name come on top. Residues count along the entry.
UniProt P13943, residues 55-468: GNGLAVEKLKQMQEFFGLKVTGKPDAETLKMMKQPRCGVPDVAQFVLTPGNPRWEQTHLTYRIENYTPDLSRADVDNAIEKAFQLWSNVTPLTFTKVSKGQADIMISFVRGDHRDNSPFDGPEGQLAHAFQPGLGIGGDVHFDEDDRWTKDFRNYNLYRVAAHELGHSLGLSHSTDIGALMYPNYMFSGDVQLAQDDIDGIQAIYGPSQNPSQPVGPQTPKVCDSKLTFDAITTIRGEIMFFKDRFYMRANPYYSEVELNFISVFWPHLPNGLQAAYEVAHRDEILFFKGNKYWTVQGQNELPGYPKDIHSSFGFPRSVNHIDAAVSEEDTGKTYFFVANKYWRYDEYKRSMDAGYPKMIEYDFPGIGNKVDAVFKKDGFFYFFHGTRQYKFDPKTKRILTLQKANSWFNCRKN
UniProt P16035: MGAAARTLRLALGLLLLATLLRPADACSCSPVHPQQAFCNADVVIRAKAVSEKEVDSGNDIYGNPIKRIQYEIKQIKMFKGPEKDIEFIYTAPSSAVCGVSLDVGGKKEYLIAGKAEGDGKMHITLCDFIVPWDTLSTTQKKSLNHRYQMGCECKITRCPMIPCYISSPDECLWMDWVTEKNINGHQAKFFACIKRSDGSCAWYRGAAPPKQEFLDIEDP

Target: plasmin-treated rabbit fibroblast interstitial procollagenase (46-kDa intermediate) (rabbit) (UniProt P13943)
Assay: SDS-PAGE of unheated samples

In the case of “CHO cell-derived recombinant human metalloproteinase inhibitor (MI) (from UniProt P16035 27-220)”, the binding is reported as “binds”.
